# Assay results published in PubChem BioAssay AID1347423 (Functional Genomics Laboratory (NCATS/FGL), 2020).
# About 210 (0.4%) of roughly 52,000 sequences were called active.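 How the source made its calls: active means gene whose silencing raises cell survival under the drug, median off-target-corrected z-score across its silencing RNAs 2 or more; inactive means the rest.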 The list shows a part of the results.
# Experiment: Resistance to Poly (ADP-Ribose) Polymerase inhibitor: Gene Identification via Genome-wide siRNA Screen
# Conditions: mouse BRCA2 R2336H ES cells, olaparib, CellTiter-Glo viability; stronger effect = higher value
# Method in brief: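 Mouse BRCA2 R2336H ES cells were reverse-transfected with siRNA (20 nM final), treated at 48 h with 500 nM olaparib, and read by CellTiter-Glo after 72 h. Scores: MAD-based z per siRNA, median per gene, seed off-target correction.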
row,Sequence,z-score
1,CCCUCUGGUUACUAUUAUUTT against D14Ertd449e,inactive: 1.32
2,GGAUGACCAGACCUUGACGTT against Fgfrl1,inactive: -0.531
3,GCAGGUUAUACGCUUAGAUTT against Irx5,inactive: -0.324
4,GGGUUUUCUUUGUUUUAGUTT against Trim8,inactive: -0.56
5,GGAGAUUCUGUCAGACAGGTT against 4930467B06Rik,inactive: -0.179
6,GGCCAAGUUAGUUGAACCCTT against Dock11,inactive: -0.563
7,CGUGGUAGACACUGUGGUATT against Plin,inactive: -0.4
8,CGGGCUACCAUUAUGGUGATT against Atp6ap2,inactive: 0.738
9,GGUUCCUUACCUAUUCCUATT against BC023818,inactive: 1.3
10,GCAUUUCGCCUCUUUCAUATT against Elac1,inactive: -0.426
11,GGAUGUCCUACUAGUUAUUTT against 9130401M01Rik,inactive: -0.574
12,CCCUUUCGACAGAUUAGACTT against Zfp69,inactive: 0.678
13,GGCAAUUUCACGAUUUGCUTT against Eif2b4,inactive: -1
14,CCUUAGCUAGAGAAAGUUATT against BC034507,inactive: -0.423
15,GGCAUGCUUGGCUUAUUUGTT against Kcnk4,inactive: 0.024
16,GGAGCUUGCCAUAUUCCUCTT against Leprotl1,inactive: 1.31
17,CCCAUUCACUCAUCACAUGTT against F630003A18Rik,inactive: -0.0848
18,GGGCAAUUUGUUCGACCCATT against Abca2,inactive: -0.957
19,GGAGAAAAUGAAGAAGGAATT against Taf5,inactive: -1.31
20,CGUAUUAUCUGAGUGAACATT against Fth1,inactive: 0.892
21,GGAACUCAUGUGAAGCUCCTT against 1500011L16Rik,inactive: 0.982
22,GGUUGCAUUUCCAAAAACUTT against Gng10,inactive: 0.166
23,GGCAGGUACAGAAACAGUUTT against Olfr432,inactive: -1.19
24,GGAAGCCAAACAGUUAUUUTT against Etohi2,inactive: -0.253
25,GGAUUAAGAAAGAAACAGGTT against B830013J05Rik,inactive: -0.0834
26,CCCAAAUUGAUCUCAGAGATT against Cdc42,inactive: 0.424
27,CGAAUAGUAGAAGAAACUCTT against Osgepl1,inactive: -0.524
28,GGAAGAUACGUGCAAAAUGTT against Rbms2,inactive: 1.33
29,GGUUGGUAGACUGUGCUUGTT against D8Ertd354e,inactive: -0.188

# 2 neighbouring records out of the list so far:
row,Sequence,z-score
19,GGAGAAAAUGAAGAAGGAATT against Taf5,inactive: -1.31
20,CGUAUUAUCUGAGUGAACATT against Fth1,inactive: 0.892
